From the supplement of paper PMC12819154, “High-throughput peptide-centric local stability assay extends protein–ligand identification to membrane proteins, tissues and bacteria” (Nature Structural & Molecular Biology, 2025) come the findings set out here.

Chains of the proteins cited; added tags and fusions are not shown. Lines headed by an entry give the natural chain unless they say otherwise; changes in a name come on top.
UniProt Q12926, whole entry: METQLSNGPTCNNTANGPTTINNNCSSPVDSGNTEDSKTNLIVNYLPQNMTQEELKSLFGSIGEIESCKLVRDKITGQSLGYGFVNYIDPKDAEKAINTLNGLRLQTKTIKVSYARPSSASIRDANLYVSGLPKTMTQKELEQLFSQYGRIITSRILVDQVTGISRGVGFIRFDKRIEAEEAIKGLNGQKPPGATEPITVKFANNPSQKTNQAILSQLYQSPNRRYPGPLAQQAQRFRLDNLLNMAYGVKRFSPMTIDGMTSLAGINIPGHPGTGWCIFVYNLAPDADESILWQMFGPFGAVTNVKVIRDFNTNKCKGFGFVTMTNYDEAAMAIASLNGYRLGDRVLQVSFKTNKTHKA
UniProt Q13106: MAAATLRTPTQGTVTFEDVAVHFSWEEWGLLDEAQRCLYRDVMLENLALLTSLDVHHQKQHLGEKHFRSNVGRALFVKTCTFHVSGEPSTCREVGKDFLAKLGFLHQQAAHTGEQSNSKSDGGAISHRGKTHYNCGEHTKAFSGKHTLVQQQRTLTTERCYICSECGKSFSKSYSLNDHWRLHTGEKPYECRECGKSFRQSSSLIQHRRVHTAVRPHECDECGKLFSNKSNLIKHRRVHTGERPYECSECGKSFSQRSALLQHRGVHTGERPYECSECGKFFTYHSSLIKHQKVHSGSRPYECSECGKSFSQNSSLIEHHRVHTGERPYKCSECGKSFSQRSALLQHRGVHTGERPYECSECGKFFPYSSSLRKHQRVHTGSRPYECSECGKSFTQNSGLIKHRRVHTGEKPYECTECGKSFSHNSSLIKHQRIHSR
UniProt Q03135: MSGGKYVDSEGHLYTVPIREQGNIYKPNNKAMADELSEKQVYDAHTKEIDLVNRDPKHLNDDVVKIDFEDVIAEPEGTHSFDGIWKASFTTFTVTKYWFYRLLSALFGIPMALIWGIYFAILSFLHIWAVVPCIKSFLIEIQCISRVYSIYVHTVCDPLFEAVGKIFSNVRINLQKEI
UniProt Q07912: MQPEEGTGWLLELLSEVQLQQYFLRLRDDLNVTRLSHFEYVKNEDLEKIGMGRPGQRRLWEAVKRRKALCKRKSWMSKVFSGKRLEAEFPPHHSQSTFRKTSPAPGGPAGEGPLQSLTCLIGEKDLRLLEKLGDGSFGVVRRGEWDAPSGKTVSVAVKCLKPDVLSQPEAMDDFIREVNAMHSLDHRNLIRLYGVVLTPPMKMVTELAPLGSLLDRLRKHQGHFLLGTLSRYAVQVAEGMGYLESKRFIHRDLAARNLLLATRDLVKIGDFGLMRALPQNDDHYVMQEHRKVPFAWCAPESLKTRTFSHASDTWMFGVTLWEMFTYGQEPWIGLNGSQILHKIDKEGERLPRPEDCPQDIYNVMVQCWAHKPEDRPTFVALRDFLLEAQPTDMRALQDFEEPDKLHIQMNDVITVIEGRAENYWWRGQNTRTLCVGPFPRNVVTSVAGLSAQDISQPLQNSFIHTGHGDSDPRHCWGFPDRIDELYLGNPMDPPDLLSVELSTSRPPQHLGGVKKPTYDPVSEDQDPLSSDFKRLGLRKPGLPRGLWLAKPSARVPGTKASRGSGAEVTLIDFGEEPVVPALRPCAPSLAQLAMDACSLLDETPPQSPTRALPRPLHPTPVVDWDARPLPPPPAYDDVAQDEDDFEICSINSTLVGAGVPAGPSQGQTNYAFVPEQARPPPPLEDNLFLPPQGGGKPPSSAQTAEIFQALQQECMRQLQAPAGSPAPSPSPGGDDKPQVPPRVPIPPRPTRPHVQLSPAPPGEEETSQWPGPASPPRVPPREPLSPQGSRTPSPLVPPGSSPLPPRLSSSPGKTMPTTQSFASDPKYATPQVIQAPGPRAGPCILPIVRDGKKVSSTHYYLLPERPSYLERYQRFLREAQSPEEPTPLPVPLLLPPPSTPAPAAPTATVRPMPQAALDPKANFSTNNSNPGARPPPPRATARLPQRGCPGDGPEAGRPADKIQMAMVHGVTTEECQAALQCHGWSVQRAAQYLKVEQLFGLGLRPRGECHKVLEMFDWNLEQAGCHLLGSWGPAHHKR
UniProt Q02880: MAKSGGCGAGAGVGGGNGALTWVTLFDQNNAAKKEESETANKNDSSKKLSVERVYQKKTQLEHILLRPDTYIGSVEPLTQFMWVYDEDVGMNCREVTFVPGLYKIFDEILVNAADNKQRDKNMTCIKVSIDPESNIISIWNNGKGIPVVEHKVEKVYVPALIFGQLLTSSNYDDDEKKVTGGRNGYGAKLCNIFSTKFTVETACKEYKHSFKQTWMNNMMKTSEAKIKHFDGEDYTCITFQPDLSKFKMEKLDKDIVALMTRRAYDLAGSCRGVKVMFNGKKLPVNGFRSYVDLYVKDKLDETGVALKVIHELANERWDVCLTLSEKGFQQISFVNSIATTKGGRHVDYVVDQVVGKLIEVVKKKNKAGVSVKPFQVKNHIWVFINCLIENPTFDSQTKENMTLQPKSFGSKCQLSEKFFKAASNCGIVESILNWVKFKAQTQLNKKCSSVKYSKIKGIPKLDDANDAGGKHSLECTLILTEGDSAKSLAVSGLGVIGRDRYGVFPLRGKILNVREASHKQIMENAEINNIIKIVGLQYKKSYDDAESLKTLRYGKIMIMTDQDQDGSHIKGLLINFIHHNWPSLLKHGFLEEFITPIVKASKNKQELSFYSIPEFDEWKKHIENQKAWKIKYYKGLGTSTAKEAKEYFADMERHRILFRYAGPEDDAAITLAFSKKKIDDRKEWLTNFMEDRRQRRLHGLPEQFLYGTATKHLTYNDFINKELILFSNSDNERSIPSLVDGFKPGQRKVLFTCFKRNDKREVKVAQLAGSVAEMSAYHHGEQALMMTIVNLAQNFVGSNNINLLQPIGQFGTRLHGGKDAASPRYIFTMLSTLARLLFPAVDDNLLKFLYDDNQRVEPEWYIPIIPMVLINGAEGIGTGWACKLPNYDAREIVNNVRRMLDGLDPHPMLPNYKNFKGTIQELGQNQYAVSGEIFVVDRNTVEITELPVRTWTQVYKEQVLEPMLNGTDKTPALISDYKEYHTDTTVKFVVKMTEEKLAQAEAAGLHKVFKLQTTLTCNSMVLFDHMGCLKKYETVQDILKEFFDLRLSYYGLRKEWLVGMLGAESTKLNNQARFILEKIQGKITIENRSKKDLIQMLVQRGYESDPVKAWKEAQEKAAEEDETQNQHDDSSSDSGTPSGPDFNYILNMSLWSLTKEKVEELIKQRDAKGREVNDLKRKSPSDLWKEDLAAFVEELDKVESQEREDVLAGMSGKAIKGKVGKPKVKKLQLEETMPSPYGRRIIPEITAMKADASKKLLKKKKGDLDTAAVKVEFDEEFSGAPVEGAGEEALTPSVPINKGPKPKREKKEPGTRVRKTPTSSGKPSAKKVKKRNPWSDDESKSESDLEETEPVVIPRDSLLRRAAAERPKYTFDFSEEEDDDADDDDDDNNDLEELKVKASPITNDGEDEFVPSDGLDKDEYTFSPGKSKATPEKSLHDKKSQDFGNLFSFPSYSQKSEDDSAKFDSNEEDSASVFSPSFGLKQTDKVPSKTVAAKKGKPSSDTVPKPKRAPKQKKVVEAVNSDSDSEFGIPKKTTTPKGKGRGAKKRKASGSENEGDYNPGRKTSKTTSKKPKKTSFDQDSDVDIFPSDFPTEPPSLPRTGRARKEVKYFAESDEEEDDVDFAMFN
UniProt Q00013: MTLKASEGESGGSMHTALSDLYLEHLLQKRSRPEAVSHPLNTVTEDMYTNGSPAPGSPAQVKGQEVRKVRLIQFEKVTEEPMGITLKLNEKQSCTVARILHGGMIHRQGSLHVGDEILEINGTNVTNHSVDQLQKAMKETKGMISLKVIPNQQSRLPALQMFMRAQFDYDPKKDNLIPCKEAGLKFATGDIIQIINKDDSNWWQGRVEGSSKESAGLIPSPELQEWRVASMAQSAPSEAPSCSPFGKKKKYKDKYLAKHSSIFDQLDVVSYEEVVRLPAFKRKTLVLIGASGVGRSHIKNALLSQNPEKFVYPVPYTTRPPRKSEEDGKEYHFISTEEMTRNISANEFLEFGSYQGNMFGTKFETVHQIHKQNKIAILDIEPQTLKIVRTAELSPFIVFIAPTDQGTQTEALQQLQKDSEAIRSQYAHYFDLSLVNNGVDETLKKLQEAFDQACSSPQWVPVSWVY
UniProt Q03468, whole entry: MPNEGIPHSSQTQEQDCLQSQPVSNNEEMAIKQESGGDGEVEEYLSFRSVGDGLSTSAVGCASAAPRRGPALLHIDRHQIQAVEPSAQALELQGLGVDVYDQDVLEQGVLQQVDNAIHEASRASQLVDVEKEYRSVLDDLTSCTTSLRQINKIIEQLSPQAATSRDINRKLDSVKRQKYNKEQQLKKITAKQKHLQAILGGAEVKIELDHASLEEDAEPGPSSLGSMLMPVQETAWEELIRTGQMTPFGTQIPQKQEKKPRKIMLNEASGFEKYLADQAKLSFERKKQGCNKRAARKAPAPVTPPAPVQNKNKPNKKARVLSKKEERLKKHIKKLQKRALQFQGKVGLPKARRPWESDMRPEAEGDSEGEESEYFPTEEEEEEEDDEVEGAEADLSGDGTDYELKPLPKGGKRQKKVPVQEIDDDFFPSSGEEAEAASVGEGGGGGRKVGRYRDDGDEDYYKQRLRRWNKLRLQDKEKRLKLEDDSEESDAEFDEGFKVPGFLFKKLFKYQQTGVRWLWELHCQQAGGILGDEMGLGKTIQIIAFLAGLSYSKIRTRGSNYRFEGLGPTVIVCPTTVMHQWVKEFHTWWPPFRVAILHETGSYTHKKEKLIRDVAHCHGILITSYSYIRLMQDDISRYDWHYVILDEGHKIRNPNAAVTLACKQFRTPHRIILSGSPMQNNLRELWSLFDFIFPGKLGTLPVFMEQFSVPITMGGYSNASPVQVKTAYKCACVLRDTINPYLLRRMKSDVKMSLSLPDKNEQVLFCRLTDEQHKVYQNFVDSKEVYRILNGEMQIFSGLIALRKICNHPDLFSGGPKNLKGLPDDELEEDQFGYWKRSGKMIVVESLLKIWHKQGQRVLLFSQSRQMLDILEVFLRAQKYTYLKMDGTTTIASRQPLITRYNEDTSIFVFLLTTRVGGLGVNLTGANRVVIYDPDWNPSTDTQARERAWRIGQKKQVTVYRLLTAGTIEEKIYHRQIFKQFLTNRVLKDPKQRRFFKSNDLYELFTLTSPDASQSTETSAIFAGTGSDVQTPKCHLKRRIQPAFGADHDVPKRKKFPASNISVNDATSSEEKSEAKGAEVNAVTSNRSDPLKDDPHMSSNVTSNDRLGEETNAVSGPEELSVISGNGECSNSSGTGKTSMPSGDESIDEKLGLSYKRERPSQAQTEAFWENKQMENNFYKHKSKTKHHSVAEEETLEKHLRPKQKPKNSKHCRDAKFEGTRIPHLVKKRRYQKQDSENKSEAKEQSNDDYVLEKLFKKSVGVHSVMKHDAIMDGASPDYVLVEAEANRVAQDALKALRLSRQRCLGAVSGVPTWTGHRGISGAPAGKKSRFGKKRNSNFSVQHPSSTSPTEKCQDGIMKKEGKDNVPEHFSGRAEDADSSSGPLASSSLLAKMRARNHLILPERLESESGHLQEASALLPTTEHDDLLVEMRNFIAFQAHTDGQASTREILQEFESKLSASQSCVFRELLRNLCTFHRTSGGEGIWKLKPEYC
UniProt Q04726: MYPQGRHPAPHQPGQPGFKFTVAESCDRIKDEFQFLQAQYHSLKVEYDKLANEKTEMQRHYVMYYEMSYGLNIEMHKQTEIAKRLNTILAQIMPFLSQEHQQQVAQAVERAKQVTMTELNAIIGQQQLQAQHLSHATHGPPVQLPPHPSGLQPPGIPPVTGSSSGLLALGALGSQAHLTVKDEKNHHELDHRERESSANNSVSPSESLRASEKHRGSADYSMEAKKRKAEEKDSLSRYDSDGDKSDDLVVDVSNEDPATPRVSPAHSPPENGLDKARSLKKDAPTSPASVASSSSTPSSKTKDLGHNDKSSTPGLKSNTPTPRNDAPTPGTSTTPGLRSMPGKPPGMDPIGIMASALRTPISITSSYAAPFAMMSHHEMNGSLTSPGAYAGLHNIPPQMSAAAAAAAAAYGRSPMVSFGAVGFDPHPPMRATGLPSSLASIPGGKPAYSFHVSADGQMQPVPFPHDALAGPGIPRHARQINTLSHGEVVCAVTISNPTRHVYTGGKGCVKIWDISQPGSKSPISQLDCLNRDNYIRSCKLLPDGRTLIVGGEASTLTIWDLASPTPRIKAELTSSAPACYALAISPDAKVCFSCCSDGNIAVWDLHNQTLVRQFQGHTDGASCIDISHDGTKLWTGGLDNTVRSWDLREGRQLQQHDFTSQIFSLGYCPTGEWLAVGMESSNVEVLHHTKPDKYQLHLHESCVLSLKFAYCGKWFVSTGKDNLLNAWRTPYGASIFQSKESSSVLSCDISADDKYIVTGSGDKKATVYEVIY

Some of the results follow. Small differences around the control level are noise.

Compound in this assay: CN[C@@H]1C[C@H]2O[C@@](C)([C@@H]1OC)n1c3ccccc3c3c4c(c5c6ccccc6n2c5c31)C(=O)NC4 [staurosporine]
The experiment in a line: log2 fold change of tryptic peptide abundance, ligand vs vehicle (limited proteolysis) (log2 ratio); higher = more trypsin-susceptible (destabilized). The conditions noted are these: ligand concentration: 20 uM; sample: K562 cleared lysate; digestion: 4 min, 22 C (HT-PELSA RT4min, Orbitrap Astral).
Regarding “SP4 (peptide sequence: QHICHIEGCGK, peptide start residue: 646) (UniProt Q02446)”, the log2 fold change stood at 0.455. For the target “ELAVL2 (peptide sequence: AINTLNGLR, peptide start residue: 77) (UniProt Q12926)”, the log2 fold change was 0.0452.

As for “UniProt Q13106 (peptide sequence: VHTGEKPYECTECGK, peptide start residue: 538)”, the log2 fold change was -0.136.

Take “CAV1 (peptide sequence: EQGNIYKPNNK, peptide start residue: 20) (UniProt Q03135)”: the log2 fold change came out at 0.301. In the case of “UniProt Q07912 (peptide sequence: VSSTHYYLLPERPSYLER, peptide start residue: 854)” it was -0.457; in that of “DAB2 (peptide sequence: IWVNISLSGIK, peptide start residue: 93) (UniProt P98082)”, -0.187. “TOP2B (peptide sequence: KTSKTTSK, peptide start residue: 1563) (UniProt Q02880)”: the log2 fold change is 0.227. In the case of “UniProt Q03188 (peptide sequence: AASGLDHLK, peptide start residue: 2)” it was 0.17; in that of “MPP1 (peptide sequence: FETVHQIHK, peptide start residue: 363) (UniProt Q00013)”, 0.458.

In the case of “ERCC6 (peptide sequence: HLQAILGGAEVK, peptide start residue: 194) (UniProt Q03468)”, the log2 fold change is 0.285. Regarding “TLE3 (peptide sequence: KAEEKDSLSR, peptide start residue: 228) (UniProt Q04726)”, the log2 fold change is 0.487.
